# Measurements: patent US20220175729A1, “PHARMACEUTICAL USE OF CHLOROPHYLLIDE FOR CANCER THERAPY” (I-SHOU UNIVERSITY, priority 2020, published 2022)
# System: MCF7 breast cancer cells
# Experiment: Differential gene expression analysis by NGS, MCF7
# Assay type: cell-based, human
# Conditions: treated versus untreated MCF7; FIG. 7
substance,measurement,value
chlorophyllide,number of differentially expressed genes,124
same,number of negative regulated genes,81
same,number of positive regulated genes,43
